PMC2852408
These are yes or no findings as the source states them, for the method shown.

The chains behind the UniProt entries cited, without tags or fusion partners. Residues count along the entry.
UniProt P03407, residues 2-210: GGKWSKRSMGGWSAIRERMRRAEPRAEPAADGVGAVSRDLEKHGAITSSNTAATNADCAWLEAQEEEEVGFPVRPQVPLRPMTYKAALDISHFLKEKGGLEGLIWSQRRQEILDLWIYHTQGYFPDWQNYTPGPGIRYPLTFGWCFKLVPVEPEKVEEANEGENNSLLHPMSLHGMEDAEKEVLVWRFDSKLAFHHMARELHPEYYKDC

Target: N-myristoylated HIV-1 Nef protein (isolate SF2) (HIV-1 isolate SF2) (UniProt P03407)
Experiment: SEC; preparative HiLoad 16/60 Superdex 75, 20 mM Tris-HCl pH 8.0, 150 mM NaCl, 15 mM β-mercaptoethanol, 10°C, 1 ml/min; final purification step; sizes estimated from a calibration with low molecular weight proteins; both purified

Question: Which binding does the source give for “N-myristoylated HIV-1 Nef protein (isolate SF2) (from UniProt P03407 2-210)” here?
Answer: no binding
